{"source": "PubChem BioAssay AID1671195 (Yale University, 2021)", "test": "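Knockdowns that increase or decrease uptake of fluorescent LDL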 (primary screen)", "system": "human Huh7 hepatoma cells", "knock-down reagent": "siRNA pool against human genes, 18 nM", "time to read-out": "about 2 to 2.5 days of knockdown, then 8 h LDL uptake", "treatment": "DiI-labelled LDL at 30 µg/ml for 8 h, in lipoprotein-deficient serum medium", "measured": "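Per-cell DiI-LDL intensity by automated imaging; well means scaled to the plate median and given as a robust z-score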", "scale": "robust z-score: higher = more LDL uptake after knockdown", "active means": "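a gene counts as active if at least two replicate z-scores exceed ±2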", "note": "This is a random part of about 22,000 reagents. Over the whole deposit, about 1,510 (6.9%) got an active call. 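Active includes knockdowns raising or lowering LDL uptake; positive z-scores mean more uptake, negative mean less.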"}
{"gene knocked down": "BABAM2", "PubChem SID": "SID442900286", "robust z-score, replicate 1": -1.27, "robust z-score, replicate 2": 0.134, "robust z-score, replicate 3": -1.08, "Outcome": "inactive"}
{"gene knocked down": "RSPH9", "PubChem SID": "SID442887310", "robust z-score, replicate 1": 1.05, "robust z-score, replicate 2": 0.821, "robust z-score, replicate 3": 0.955, "Outcome": "inactive"}
{"gene knocked down": "LINC01761", "PubChem SID": "SID442896132", "robust z-score, replicate 1": 0.093, "robust z-score, replicate 2": -0.172, "robust z-score, replicate 3": -0.645, "Outcome": "inactive"}
{"gene knocked down": "LOC402418 (retired record)", "PubChem SID": "SID442896873", "robust z-score, replicate 1": -0.372, "robust z-score, replicate 2": -0.267, "robust z-score, replicate 3": -0.326, "Outcome": "inactive"}
{"gene knocked down": "ARF1", "PubChem SID": "SID442896298", "robust z-score, replicate 1": -0.794, "robust z-score, replicate 2": 0.2, "robust z-score, replicate 3": -0.178, "Outcome": "inactive"}
{"gene knocked down": "CEBPE", "PubChem SID": "SID442884623", "robust z-score, replicate 1": 1.31, "robust z-score, replicate 2": 0.745, "robust z-score, replicate 3": 4.47, "Outcome": "inactive"}
{"gene knocked down": "SLC51B", "PubChem SID": "SID442901112", "robust z-score, replicate 1": -1.4, "robust z-score, replicate 2": -0.638, "robust z-score, replicate 3": -0.515, "Outcome": "inactive"}
{"gene knocked down": "CMYA5", "PubChem SID": "SID442886933", "robust z-score, replicate 1": 0.927, "robust z-score, replicate 2": 0.165, "robust z-score, replicate 3": 1.99, "Outcome": "inactive"}
{"gene knocked down": "P2RX3", "PubChem SID": "SID442902162", "robust z-score, replicate 1": -0.958, "robust z-score, replicate 2": -1.19, "robust z-score, replicate 3": -0.917, "Outcome": "inactive"}
{"gene knocked down": "SMARCC2", "PubChem SID": "SID442886745", "robust z-score, replicate 1": 1.3, "robust z-score, replicate 2": 0.449, "robust z-score, replicate 3": 1.47, "Outcome": "inactive"}

3 entries already listed, arranged by “robust z-score, replicate 1”, descending:
{"gene knocked down": "CEBPE", "PubChem SID": "SID442884623", "robust z-score, replicate 1": 1.31, "robust z-score, replicate 2": 0.745, "robust z-score, replicate 3": 4.47, "Outcome": "inactive"}
{"gene knocked down": "LOC402418 (retired record)", "PubChem SID": "SID442896873", "robust z-score, replicate 1": -0.372, "robust z-score, replicate 2": -0.267, "robust z-score, replicate 3": -0.326, "Outcome": "inactive"}
{"gene knocked down": "ARF1", "PubChem SID": "SID442896298", "robust z-score, replicate 1": -0.794, "robust z-score, replicate 2": 0.2, "robust z-score, replicate 3": -0.178, "Outcome": "inactive"}

The list goes on:
{"gene knocked down": "C5orf58", "PubChem SID": "SID442902287", "robust z-score, replicate 1": -0.799, "robust z-score, replicate 2": -1.71, "robust z-score, replicate 3": -0.629, "Outcome": "inactive"}
{"gene knocked down": "GGA2", "PubChem SID": "SID442900946", "robust z-score, replicate 1": -0.629, "robust z-score, replicate 2": -1.14, "robust z-score, replicate 3": -0.716, "Outcome": "inactive"}
{"gene knocked down": "PCBD1", "PubChem SID": "SID442902546", "robust z-score, replicate 1": -1.27, "robust z-score, replicate 2": -1.06, "robust z-score, replicate 3": -0.976, "Outcome": "inactive"}
{"gene knocked down": "CEP126", "PubChem SID": "SID442885856", "robust z-score, replicate 1": 1.65, "robust z-score, replicate 2": 0.899, "robust z-score, replicate 3": 1.48, "Outcome": "inactive"}
{"gene knocked down": "PTCD2", "PubChem SID": "SID442888130", "robust z-score, replicate 1": 0.746, "robust z-score, replicate 2": 0.846, "robust z-score, replicate 3": 0.744, "Outcome": "inactive"}
{"gene knocked down": "USP31", "PubChem SID": "SID442889460", "robust z-score, replicate 1": 0.328, "robust z-score, replicate 2": 0.684, "robust z-score, replicate 3": 0.655, "Outcome": "inactive"}
{"gene knocked down": "LOC387702 (retired record)", "PubChem SID": "SID442897251", "robust z-score, replicate 1": 0.0768, "robust z-score, replicate 2": -0.624, "robust z-score, replicate 3": -0.547, "Outcome": "inactive"}
{"gene knocked down": "EEF1A1P16", "PubChem SID": "SID442889528", "robust z-score, replicate 1": 0.903, "robust z-score, replicate 2": 0.271, "robust z-score, replicate 3": 0.461, "Outcome": "inactive"}
{"gene knocked down": "RGS4", "PubChem SID": "SID442883143", "robust z-score, replicate 1": 3.87, "robust z-score, replicate 2": 4.17, "robust z-score, replicate 3": 5.65, "Outcome": "active"}
{"gene knocked down": "MLH1", "PubChem SID": "SID442903579", "robust z-score, replicate 1": -1.22, "robust z-score, replicate 2": -1.52, "robust z-score, replicate 3": -1.25, "Outcome": "inactive"}
{"gene knocked down": "PIGR", "PubChem SID": "SID442899627", "robust z-score, replicate 1": -0.422, "robust z-score, replicate 2": -0.375, "robust z-score, replicate 3": -1.14, "Outcome": "inactive"}
{"gene knocked down": "ATP13A1", "PubChem SID": "SID442884699", "robust z-score, replicate 1": 1.49, "robust z-score, replicate 2": 1.86, "robust z-score, replicate 3": 2.51, "Outcome": "inactive"}
{"gene knocked down": "NDP", "PubChem SID": "SID442898839", "robust z-score, replicate 1": -0.231, "robust z-score, replicate 2": -0.766, "robust z-score, replicate 3": -0.637, "Outcome": "inactive"}
{"gene knocked down": "FCRL3", "PubChem SID": "SID442896217", "robust z-score, replicate 1": -0.499, "robust z-score, replicate 2": -0.092, "robust z-score, replicate 3": -0.157, "Outcome": "inactive"}
